Measured values: the supplement of paper PMC10849652
Some of the results follow. Residues, ends and D or L forms follow the SMILES beside them. *: point of attachment. Cbz = O=C(OCc1ccccc1)*

By UniProt entry, the sequences of proteins in these tests, tags left out. Where a name states a change or a piece, a line headed by the entry shows the natural chain unless it says otherwise.
UniProt O43813, whole entry, looked up: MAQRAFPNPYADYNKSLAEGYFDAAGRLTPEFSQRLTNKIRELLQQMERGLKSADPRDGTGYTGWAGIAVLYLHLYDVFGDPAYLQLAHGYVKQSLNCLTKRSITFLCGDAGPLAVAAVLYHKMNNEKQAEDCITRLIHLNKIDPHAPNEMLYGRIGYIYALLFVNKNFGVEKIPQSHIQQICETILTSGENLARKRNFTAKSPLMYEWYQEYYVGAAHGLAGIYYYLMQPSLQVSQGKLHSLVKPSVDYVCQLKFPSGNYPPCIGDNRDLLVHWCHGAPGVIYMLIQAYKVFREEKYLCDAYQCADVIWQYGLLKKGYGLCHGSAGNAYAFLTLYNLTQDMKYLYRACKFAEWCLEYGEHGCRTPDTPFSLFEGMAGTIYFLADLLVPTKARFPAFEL
UniProt P18858, whole entry, looked up: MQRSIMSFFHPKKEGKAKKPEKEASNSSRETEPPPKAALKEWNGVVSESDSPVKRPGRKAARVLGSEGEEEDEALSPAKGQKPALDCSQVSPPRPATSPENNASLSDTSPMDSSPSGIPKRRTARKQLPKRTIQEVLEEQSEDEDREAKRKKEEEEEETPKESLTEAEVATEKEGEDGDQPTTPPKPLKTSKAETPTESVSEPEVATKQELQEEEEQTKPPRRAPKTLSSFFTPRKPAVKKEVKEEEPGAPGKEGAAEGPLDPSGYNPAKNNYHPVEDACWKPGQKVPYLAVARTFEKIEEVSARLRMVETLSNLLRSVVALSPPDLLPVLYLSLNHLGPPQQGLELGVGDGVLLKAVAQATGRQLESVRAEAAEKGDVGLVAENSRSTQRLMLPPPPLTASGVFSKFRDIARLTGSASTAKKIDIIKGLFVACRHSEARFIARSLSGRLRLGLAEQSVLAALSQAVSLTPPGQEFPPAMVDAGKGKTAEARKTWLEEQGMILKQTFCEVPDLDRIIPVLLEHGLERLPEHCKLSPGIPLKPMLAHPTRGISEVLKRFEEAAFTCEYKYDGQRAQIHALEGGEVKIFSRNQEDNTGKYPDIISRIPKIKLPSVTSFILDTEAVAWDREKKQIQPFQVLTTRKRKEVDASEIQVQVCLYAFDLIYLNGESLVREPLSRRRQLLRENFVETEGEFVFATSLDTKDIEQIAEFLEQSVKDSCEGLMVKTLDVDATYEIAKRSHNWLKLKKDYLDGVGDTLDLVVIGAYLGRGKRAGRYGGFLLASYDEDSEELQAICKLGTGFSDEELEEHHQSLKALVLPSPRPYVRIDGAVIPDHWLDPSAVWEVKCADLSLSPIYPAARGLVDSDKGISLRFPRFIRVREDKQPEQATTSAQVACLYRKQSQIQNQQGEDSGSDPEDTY
UniProt Q6P1Q0: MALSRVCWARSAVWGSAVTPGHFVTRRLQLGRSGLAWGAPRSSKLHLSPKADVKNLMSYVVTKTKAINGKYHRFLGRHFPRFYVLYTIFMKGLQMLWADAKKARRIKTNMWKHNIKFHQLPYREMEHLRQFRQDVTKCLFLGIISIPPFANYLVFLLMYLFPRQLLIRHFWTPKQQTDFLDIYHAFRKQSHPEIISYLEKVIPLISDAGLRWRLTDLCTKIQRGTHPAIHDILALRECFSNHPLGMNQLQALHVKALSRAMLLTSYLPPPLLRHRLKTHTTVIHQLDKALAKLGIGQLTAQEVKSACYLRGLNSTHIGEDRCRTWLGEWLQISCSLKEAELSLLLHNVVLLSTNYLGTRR
UniProt Q9UN81: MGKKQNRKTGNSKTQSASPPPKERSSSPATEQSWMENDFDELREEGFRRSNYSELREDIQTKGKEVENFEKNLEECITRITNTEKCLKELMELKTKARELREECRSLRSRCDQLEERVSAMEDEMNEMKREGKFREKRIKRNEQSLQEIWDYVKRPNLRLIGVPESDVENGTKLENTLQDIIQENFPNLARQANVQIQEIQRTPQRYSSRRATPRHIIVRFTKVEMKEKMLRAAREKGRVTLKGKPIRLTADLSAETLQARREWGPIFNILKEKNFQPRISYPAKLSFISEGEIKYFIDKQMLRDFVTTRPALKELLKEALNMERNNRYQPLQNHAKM
UniProt Q96EK9: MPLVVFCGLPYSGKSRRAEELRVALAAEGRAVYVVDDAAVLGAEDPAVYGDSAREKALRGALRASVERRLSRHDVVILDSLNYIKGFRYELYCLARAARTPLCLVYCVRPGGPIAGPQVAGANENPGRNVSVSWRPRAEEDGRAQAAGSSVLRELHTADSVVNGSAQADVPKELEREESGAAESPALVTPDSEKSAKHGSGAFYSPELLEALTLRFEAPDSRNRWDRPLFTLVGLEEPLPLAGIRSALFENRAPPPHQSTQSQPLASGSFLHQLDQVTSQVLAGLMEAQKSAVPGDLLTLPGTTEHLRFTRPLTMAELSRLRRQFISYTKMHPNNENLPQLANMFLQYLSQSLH
UniProt P25791: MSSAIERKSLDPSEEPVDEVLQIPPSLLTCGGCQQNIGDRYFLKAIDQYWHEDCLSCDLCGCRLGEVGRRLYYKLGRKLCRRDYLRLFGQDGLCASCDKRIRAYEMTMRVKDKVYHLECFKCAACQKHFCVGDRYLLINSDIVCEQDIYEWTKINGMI
UniProt Q6ZN17: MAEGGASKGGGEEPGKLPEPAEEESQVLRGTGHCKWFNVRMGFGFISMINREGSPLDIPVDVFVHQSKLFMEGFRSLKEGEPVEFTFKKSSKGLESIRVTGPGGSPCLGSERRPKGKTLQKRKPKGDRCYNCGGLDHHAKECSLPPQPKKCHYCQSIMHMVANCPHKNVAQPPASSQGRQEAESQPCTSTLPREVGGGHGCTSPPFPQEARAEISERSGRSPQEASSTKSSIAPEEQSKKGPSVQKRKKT
UniProt Q16773: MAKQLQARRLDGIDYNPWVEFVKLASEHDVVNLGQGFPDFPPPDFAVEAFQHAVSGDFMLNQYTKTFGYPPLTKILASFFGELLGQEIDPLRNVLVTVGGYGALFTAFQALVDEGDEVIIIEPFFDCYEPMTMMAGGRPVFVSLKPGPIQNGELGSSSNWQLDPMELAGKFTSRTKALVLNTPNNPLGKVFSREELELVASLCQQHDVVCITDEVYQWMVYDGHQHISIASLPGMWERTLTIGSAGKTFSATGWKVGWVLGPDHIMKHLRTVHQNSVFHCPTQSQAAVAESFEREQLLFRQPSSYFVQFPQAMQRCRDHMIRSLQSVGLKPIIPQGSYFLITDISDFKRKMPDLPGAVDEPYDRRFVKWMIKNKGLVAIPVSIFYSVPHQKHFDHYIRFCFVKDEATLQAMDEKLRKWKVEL
UniProt Q9NT99: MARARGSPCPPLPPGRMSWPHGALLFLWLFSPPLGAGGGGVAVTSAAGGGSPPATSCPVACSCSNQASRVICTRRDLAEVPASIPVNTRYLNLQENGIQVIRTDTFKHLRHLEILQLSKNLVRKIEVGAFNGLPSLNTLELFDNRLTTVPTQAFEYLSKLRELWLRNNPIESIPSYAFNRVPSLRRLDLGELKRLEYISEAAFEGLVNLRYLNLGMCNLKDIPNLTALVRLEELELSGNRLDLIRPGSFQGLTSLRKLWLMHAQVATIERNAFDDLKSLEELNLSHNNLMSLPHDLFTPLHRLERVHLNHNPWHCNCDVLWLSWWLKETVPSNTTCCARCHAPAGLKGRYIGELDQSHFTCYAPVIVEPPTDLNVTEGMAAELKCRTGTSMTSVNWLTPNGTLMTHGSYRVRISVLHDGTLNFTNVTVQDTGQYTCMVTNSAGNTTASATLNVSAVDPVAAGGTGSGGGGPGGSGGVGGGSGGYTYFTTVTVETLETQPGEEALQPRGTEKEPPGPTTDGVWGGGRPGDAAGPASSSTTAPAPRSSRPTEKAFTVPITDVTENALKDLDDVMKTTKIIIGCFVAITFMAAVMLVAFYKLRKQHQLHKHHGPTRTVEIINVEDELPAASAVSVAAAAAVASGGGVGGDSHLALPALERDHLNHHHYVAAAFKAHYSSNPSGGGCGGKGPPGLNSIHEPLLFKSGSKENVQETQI
UniProt P11279: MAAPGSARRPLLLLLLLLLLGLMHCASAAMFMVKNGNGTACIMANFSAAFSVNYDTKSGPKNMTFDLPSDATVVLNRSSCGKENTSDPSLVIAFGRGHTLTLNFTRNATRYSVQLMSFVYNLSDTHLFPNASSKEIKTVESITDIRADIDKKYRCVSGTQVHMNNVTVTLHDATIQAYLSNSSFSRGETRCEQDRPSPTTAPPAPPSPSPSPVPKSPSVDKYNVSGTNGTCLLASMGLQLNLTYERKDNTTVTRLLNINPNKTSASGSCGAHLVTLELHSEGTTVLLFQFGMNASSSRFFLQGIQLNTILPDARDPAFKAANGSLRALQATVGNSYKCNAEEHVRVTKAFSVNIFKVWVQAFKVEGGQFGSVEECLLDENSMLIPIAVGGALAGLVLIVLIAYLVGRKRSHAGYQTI
UniProt Q12907: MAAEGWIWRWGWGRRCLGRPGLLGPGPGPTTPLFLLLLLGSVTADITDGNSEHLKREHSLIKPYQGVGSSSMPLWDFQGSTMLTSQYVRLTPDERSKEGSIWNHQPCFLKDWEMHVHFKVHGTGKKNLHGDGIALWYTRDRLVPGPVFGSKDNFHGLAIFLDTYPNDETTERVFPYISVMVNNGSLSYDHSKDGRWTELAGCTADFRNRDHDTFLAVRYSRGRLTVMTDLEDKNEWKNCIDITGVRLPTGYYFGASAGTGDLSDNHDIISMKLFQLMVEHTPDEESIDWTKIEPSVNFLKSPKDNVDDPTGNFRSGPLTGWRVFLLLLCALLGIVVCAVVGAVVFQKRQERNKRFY
UniProt P83111: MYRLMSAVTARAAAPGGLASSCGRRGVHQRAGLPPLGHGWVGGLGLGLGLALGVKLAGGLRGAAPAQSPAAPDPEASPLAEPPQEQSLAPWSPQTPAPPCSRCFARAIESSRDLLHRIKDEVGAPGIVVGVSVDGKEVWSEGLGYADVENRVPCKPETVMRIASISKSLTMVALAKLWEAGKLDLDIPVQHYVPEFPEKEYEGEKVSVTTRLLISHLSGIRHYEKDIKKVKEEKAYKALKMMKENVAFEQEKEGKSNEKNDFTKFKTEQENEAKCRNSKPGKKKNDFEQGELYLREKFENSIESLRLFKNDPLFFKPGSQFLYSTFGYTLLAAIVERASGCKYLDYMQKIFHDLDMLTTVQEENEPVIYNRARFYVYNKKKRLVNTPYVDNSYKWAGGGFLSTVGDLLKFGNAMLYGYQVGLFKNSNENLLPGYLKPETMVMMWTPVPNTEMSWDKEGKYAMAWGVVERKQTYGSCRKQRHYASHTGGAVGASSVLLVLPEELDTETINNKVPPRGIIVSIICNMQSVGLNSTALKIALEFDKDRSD
UniProt Q96BZ8: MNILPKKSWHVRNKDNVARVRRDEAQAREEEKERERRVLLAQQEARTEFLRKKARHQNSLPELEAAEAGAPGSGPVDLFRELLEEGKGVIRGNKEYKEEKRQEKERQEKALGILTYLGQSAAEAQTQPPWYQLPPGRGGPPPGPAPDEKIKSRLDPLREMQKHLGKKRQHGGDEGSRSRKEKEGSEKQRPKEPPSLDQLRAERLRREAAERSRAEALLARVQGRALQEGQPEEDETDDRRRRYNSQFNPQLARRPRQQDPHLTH
UniProt Q6UWP7: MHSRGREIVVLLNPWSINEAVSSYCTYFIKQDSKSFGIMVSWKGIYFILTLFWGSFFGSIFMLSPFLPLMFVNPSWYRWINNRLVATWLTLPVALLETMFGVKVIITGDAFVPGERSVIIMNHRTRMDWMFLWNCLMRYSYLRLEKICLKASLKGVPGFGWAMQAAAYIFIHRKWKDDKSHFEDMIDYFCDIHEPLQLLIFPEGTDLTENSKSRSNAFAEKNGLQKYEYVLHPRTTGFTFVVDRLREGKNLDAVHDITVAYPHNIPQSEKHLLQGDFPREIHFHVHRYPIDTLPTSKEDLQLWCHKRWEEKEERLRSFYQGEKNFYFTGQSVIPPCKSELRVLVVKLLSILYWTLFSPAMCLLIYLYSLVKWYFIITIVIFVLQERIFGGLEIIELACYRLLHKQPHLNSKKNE
UniProt Q14657: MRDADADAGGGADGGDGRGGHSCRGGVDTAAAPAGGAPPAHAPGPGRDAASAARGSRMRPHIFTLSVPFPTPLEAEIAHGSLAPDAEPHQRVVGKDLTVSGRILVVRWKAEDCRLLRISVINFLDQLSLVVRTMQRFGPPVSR

Legend:
Experiment in all cases: log2 fold change, soluble protein after heating vs DMSO (PISA); higher = thermal stabilisation; K562 cells, 10 uM, 30 min; active = over 0.2 and 3.5 SD of the protein, either way, in both replicates (recomputed)
erlotinib = compound: C#Cc1cccc(Nc2ncnc3cc(OCCOC)c(OCCOC)cc23)c1 [erlotinib]
Summary of the method: (§1)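 Soluble protein was defined as the supernatant after 21,000xg for 90 min. It came from K562 cells at 2×10^6 cells/mL given 10 μM compound for 30 min, heated in aliquots for 3 min across 48°C-58°C, pooled, and extracted in PBS with 0.5% NP-40 at 4°C, and was quantified by TMTpro 16plex LC-MS/MS with equalised channel sums. Thermal stability against control samples, from duplicates, is reported as log2 fold change.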

[1] = compound: C/C(=N\NC(=O)C1=CC(=CC=C1)S(=O)(=O)N2CCOCC2)/C3=C(C=CC(=C3)Cl)O
Summary of the method: as §1

[2] = compound: C1=CC(=C(C=C1Cl)C2=NC3=NC=CN=C3C(=N2)NC4=CC=NC=C4)F
Summary of the method: as §1

[3] = compound: C1=CC(=CC=C1C2=NC3=C(N2)C=C(C=C3)C(=O)N)OC4=CC=C(C=C4)Cl
Summary of the method: as §1

[4] = compound: C1=CC2=C(C=CC(=C2)/C=C\3/C(=O)NC(=NCC4=CC=CS4)S3)N=C1
Summary of the method: as §1

[5] = compound: C1=CC2=NC=CN=C2C=C1/C=C/3\C(=O)NC(=O)S3
Summary of the method: as §1

[6] = compound: C1=CC=C(C=C1)C2=NC(=C(N2)C3=CC=NC=C3)C4=CC(=C(C=C4)Cl)O
Summary of the method: as §1

[7] = compound: C1=CC=C2C(=C1)C3=NNC4=CC=CC(=C43)C2=O
Summary of the method: as §1

[8] = compound: C1CCN(C1)C(=O)NC2=CC=CC(=C2)NC3=NC=C(C(=N3)NCCC4=CN=CN4)Br
Summary of the method: as §1

[9] = compound: C1CN(CCC1(CC2=CC=C(C=C2)Cl)N)C3=NC=NC4=C3C=CN4
Summary of the method: as §1

IRAK-1-4 Inhibitor I = compound: C1COCCN1CCN2C3=CC=CC=C3N=C2NC(=O)C4=CC(=CC=C4)[N+](=O)[O-] [IRAK-1-4 Inhibitor I]
Summary of the method: as §1

ibrutinib = compound: C=CC(=O)N1CCC[C@@H](n2nc(-c3ccc(Oc4ccccc4)cc3)c3c(N)ncnc32)C1 [ibrutinib]
Summary of the method: as §1

[10] = compound: CC(=O)c1cnc2ccc(-c3cc(Cl)c(O)c(Cl)c3)nc2c1N[C@H]1CC[C@H](CN(C)C)CC1
Summary of the method: as §1

ralimetinib = compound: CC(C)(C)Cn1c(N)nc2ccc(-c3[nH]c(C(C)(C)C)nc3-c3ccc(F)cc3)nc21 [ralimetinib]
Summary of the method: as §1

[11] = compound: CC(C)(O)CC(=O)NCCn1ccc2ncnc(Nc3ccc(Oc4cccc(C(F)(F)F)c4)c(Cl)c3)c21
Summary of the method: as §1

[12] = compound: CC(C)C1=C2N=C(C=C(N2N=C1)NCC3=CC=CC=C3)NCCCCCCN
Summary of the method: as §1

[13] = compound: CC(C)C[C@@H](C=O)NC(=O)[C@H](CC(C)C)NC(=O)[C@H](CC(C)C)NC(=O)OCc1ccccc1
Summary of the method: as §1

pinometostat = compound: CC(C)N(C[C@H]1O[C@@H](n2cnc3c(N)ncnc32)[C@H](O)[C@@H]1O)[C@H]1C[C@@H](CCc2nc3cc(C(C)(C)C)ccc3[nH]2)C1 [pinometostat]
Summary of the method: as §1

[14] = compound: CC1=C(C(CC(=O)N1)C2=CC=C(C=C2)C(F)(F)F)C(=O)NC3=C(C=C4C(=C3)C=NN4)F
Summary of the method: as §1

[15] = compound: CC1=C(C2=C(C=C1)C(=O)C3=CC=CC=C3N2CCCN)C
Summary of the method: as §1

Measured: log2 fold change

LANCL1 (UniProt O43813)
inactive: erlotinib -0.034 | [1] 0.015 | [2] 0.043 | [3] 0.001 | [4] -0.044 | [5] 0.009 | [6] -0.003 | [7] -0.021 | [8] -0.025 | [9] 0.022 | IRAK-1-4 Inhibitor I 0.038 | ibrutinib 0.05 | [10] -0.002 | ralimetinib -0.027 | [11] -0.034 | [12] 0.072 | [13] -0.008 | pinometostat -0.019 | [14] 0.111 | [15] 0

LIG1 (UniProt P18858)
inactive: erlotinib 0.117 | [1] 0.092 | [2] 0.084 | [3] -0.02 | [4] 0.12 | [5] 0.025 | [6] 0.108 | [7] 0.113 | [8] -0.104 | [9] -0.039 | IRAK-1-4 Inhibitor I -0.018 | ibrutinib -0.088 | [10] -0.221 | ralimetinib -0.01 | [11] -0.056 | [12] -0.259 | [13] -0.003 | pinometostat -0.016 | [14] -0.066 | [15] 0.3

LETMD1 isoform 7 (UniProt Q6P1Q0)
inactive: erlotinib 0.011 | [1] 0.096 | [2] 0 | [3] 0.037 | [4] 0.103 | [5] 0.016 | [6] 0.051 | [7] -0.112 | [8] -0.127 | [9] -0.092 | IRAK-1-4 Inhibitor I -0.095 | ibrutinib 0.044 | [10] -0.109 | ralimetinib -0.052 | [11] -0.019 | [12] -0.015 | [13] 0.024 | pinometostat 0.089 | [14] -0.035 | [15] 0.207

L1RE1 (UniProt Q9UN81)
inactive: erlotinib -0.021 | [1] -0.178 | [2] 0.225 | [3] 0.033 | [4] -0.037 | [5] 0.052 | [6] 0.034 | [7] -0.073 | [8] 0.057 | [9] -0.053 | IRAK-1-4 Inhibitor I -0.096 | ibrutinib -0.07 | [10] -0.122 | ralimetinib 0.07 | [11] -0.029 | [12] 0.009 | [13] 0.156 | pinometostat 0.108 | [14] -0.158 | [15] -0.176

KTI12 (UniProt Q96EK9)
inactive: erlotinib 0.141 | [1] 0.004 | [2] 0.016 | [3] -0.027 | [4] 0.038 | [5] -0.089 | [6] 0.022 | [7] 0.038 | [8] 0.096 | [9] 0.013 | IRAK-1-4 Inhibitor I -0.068 | ibrutinib -0.042 | [10] 0.013 | ralimetinib 0.032 | [11] -0.144 | [12] -0.109 | [13] 0.025 | pinometostat 0.05 | [14] 0.03 | [15] 0.099

LMO2 isoform 3 (UniProt P25791)
inactive: erlotinib -0.053 | [1] -0.021 | [2] 0.023 | [3] 0.017 | [4] 0.03 | [5] 0.008 | [6] -0.031 | [7] 0.055 | [8] 0.012 | [9] 0.006 | IRAK-1-4 Inhibitor I 0.076 | ibrutinib -0.023 | [10] -0.037 | ralimetinib -0.015 | [11] -0.037 | [12] 0.12 | [13] -0.001 | pinometostat -0.023 | [14] 0.084 | [15] -0.024

LAMTOR5 (UniProt O43504)
inactive: erlotinib -0.119 | [1] 0.089 | [2] 0.016 | [3] 0.083 | [4] 0.027 | [5] 0.113 | [6] 0.086 | [7] 0.099 | [8] -0.089 | [9] -0.144 | IRAK-1-4 Inhibitor I 0.013 | ibrutinib 0.005 | [10] -0.172 | ralimetinib -0.055 | [11] -0.09 | [12] -0.177 | [13] -0.119 | pinometostat -0.026 | [14] 0.04 | [15] 0.159

LIN28B (UniProt Q6ZN17)
inactive: erlotinib -0.026 | [1] -0.028 | [2] -0.21 | [3] 0.046 | [4] -0.096 | [5] 0.017 | [6] -0.006 | [7] -0.004 | [8] -0.023 | [9] -0.094 | IRAK-1-4 Inhibitor I -0.082 | ibrutinib 0.06 | [10] 0.077 | ralimetinib 0.116 | [11] 0.11 | [12] 0.019 | [13] 0.137 | pinometostat 0.189 | [14] 0.064 | [15] -0.166

KYAT1 (UniProt Q16773)
inactive: erlotinib 0.032 | [1] 0.014 | [2] 0.031 | [3] 0.012 | [4] 0.065 | [5] 0.012 | [6] -0.047 | [7] 0.003 | [8] 0.012 | [9] 0.027 | IRAK-1-4 Inhibitor I 0.02 | ibrutinib 0.037 | [10] -0.046 | ralimetinib -0.055 | [11] -0.025 | [12] 0.071 | [13] 0.002 | pinometostat -0.056 | [14] 0.025 | [15] 0

LRRC4B (UniProt Q9NT99)
inactive: erlotinib 0.186 | [1] 0.045 | [2] 0.042 | [3] -0.144 | [4] 0.047 | [5] -0.013 | [6] -0.028 | [7] -0.087 | [8] 0.073 | [9] 0.067 | IRAK-1-4 Inhibitor I 0.043 | ibrutinib 0.014 | [10] -0.027 | ralimetinib -0.139 | [11] -0.002 | [12] 0.151 | [13] 0.126 | pinometostat 0.079 | [14] -0.335 | [15] 0.048

LAMP1 (UniProt P11279)
inactive: erlotinib -0.027 | [1] -0.017 | [2] 0 | [3] 0.008 | [4] 0.01 | [5] -0.005 | [6] 0.04 | [7] -0.014 | [8] 0.017 | [9] 0.019 | IRAK-1-4 Inhibitor I 0.039 | ibrutinib 0.001 | [10] 0 | ralimetinib 0.077 | [11] 0.03 | [12] 0.017 | [13] -0.055 | pinometostat -0.012 | [14] -0.007 | [15] -0.024

LMAN2 (UniProt Q12907)
inactive: erlotinib -0.03 | [1] -0.01 | [2] 0.015 | [3] 0.015 | [4] 0.037 | [5] 0.02 | [6] -0.018 | [7] 0.029 | [8] 0.008 | [9] 0.016 | IRAK-1-4 Inhibitor I 0.034 | ibrutinib -0.012 | [10] 0.021 | ralimetinib -0.008 | [11] -0.009 | [12] -0.014 | [13] 0.029 | pinometostat -0.013 | [14] -0.019 | [15] 0.029

LACTB (UniProt P83111)
inactive: erlotinib -0.022 | [1] -0.05 | [2] -0.08 | [3] 0.076 | [4] -0.055 | [5] 0.017 | [6] 0.048 | [7] 0.071 | [8] 0.074 | [9] -0.041 | IRAK-1-4 Inhibitor I -0.002 | ibrutinib 0.06 | [10] 0.03 | ralimetinib 0.078 | [11] 0.022 | [12] -0.139 | [13] 0.139 | pinometostat 0.187 | [14] 0.043 | [15] -0.041

LENG1 (UniProt Q96BZ8)
inactive: erlotinib 0.042 | [1] -0.07 | [2] -0.03 | [3] -0.011 | [4] 0.041 | [5] 0.079 | [6] -0.01 | [7] -0.031 | [8] 0.136 | [9] 0.004 | IRAK-1-4 Inhibitor I 0.065 | ibrutinib 0.025 | [10] 0.021 | ralimetinib -0.035 | [11] 0.045 | [12] 0.079 | [13] 0.011 | pinometostat -0.027 | [14] 0.001 | [15] 0.046

LCLAT1 (UniProt Q6UWP7)
inactive: erlotinib 0.026 | [1] -0.05 | [2] 0.093 | [3] -0.037 | [4] 0.013 | [5] 0.019 | [6] -0.005 | [7] -0.04 | [8] -0.012 | [9] 0.072 | IRAK-1-4 Inhibitor I 0.016 | ibrutinib -0.059 | [10] -0.032 | ralimetinib -0.013 | [11] -0.063 | [12] 0.148 | [13] -0.004 | pinometostat -0.031 | [14] 0.012 | [15] 0.011

Retrieved one by one from the entries so far (2):
LRRC4B (UniProt Q9NT99)
inactive: erlotinib 0.186 | [1] 0.045 | [2] 0.042 | [3] -0.144 | [4] 0.047 | [5] -0.013 | [6] -0.028 | [7] -0.087 | [8] 0.073 | [9] 0.067 | IRAK-1-4 Inhibitor I 0.043 | ibrutinib 0.014 | [10] -0.027 | ralimetinib -0.139 | [11] -0.002 | [12] 0.151 | [13] 0.126 | pinometostat 0.079 | [14] -0.335 | [15] 0.048

LACTB (UniProt P83111)
inactive: erlotinib -0.022 | [1] -0.05 | [2] -0.08 | [3] 0.076 | [4] -0.055 | [5] 0.017 | [6] 0.048 | [7] 0.071 | [8] 0.074 | [9] -0.041 | IRAK-1-4 Inhibitor I -0.002 | ibrutinib 0.06 | [10] 0.03 | ralimetinib 0.078 | [11] 0.022 | [12] -0.139 | [13] 0.139 | pinometostat 0.187 | [14] 0.043 | [15] -0.041

Next records follow:

LAGE3 (UniProt Q14657)
inactive: erlotinib 0.096 | [1] -0.018 | [2] 0.131 | [3] -0.047 | [4] 0.102 | [5] 0.051 | [6] 0.023 | [7] 0.033 | [8] -0.024 | [9] 0.068 | IRAK-1-4 Inhibitor I 0.025 | ibrutinib -0.028 | [10] -0.093 | ralimetinib -0.02 | [11] -0.009 | [12] 0.041 | [13] -0.067 | pinometostat -0.075 | [14] 0.017 | [15] 0.023
